# Measured values as given in paper PMC8184941.
# Chains of the proteins cited; added tags and fusions are not shown.
# UniProt Q8TC59: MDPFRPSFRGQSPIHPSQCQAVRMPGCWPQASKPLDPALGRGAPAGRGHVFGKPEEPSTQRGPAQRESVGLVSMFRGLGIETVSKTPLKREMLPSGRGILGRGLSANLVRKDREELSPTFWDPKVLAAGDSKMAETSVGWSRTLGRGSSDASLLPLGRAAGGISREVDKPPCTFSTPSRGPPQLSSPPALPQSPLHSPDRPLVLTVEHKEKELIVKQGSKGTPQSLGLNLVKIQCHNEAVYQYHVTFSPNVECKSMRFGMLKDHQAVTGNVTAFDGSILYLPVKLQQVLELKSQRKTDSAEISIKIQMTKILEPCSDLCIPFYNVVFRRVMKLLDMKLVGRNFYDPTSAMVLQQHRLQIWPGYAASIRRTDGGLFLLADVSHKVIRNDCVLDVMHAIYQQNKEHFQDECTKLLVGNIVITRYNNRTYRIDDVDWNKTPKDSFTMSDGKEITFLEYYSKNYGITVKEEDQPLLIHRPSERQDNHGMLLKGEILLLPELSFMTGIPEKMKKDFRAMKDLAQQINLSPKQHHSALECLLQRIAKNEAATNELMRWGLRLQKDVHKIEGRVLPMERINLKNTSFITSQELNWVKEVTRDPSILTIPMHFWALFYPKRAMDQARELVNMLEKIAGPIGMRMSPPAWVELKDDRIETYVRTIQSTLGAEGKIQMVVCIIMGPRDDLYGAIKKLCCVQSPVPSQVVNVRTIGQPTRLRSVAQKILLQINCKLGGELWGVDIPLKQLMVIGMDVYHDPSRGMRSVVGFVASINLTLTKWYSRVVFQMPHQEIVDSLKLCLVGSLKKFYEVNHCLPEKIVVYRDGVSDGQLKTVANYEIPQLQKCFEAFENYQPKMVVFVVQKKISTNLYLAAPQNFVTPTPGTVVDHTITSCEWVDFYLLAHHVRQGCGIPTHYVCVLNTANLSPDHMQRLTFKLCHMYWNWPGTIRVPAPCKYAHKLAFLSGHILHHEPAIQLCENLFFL
# Results are given in words; binding and its absence hold for the method and conditions named. Binding seen in cells or lysates may run through a third protein. Some entries that bind do so weakly or less than the wild type.
# T1: TSC1 (tuberous sclerosis 1) (human (endogenous in KYSE150)) (UniProt Q92574)
# T1 sequence: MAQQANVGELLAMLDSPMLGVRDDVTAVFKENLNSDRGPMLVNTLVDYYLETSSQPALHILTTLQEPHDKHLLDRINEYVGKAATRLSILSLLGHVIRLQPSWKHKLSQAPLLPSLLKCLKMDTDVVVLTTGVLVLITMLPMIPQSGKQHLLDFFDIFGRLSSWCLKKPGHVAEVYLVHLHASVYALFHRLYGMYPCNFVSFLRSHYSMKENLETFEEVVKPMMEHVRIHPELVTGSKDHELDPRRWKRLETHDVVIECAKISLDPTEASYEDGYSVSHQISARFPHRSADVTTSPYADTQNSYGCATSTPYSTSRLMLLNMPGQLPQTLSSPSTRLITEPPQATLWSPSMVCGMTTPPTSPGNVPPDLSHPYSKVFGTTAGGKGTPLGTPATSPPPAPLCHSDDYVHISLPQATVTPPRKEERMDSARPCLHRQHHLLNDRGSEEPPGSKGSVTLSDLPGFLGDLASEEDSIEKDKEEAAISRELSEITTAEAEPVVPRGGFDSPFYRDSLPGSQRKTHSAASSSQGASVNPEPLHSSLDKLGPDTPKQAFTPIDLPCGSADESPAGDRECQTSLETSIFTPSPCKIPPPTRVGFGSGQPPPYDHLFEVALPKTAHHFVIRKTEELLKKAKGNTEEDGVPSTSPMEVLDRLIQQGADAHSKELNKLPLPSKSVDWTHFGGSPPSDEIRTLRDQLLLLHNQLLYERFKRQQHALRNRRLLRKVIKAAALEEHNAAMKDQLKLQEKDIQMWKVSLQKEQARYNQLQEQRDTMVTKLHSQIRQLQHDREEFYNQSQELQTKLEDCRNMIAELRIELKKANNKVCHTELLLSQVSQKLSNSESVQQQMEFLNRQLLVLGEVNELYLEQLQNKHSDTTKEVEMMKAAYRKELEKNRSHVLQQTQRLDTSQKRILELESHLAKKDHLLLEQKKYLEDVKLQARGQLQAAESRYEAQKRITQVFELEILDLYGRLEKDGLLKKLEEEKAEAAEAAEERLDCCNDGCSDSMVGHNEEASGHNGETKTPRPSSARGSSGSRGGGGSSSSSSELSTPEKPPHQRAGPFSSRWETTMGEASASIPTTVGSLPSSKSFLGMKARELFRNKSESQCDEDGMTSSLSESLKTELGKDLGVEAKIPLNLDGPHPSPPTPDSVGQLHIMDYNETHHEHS
# T2: TSC1, cell-free expressed (TnT System) (UniProt Q92574)
# T2 sequence: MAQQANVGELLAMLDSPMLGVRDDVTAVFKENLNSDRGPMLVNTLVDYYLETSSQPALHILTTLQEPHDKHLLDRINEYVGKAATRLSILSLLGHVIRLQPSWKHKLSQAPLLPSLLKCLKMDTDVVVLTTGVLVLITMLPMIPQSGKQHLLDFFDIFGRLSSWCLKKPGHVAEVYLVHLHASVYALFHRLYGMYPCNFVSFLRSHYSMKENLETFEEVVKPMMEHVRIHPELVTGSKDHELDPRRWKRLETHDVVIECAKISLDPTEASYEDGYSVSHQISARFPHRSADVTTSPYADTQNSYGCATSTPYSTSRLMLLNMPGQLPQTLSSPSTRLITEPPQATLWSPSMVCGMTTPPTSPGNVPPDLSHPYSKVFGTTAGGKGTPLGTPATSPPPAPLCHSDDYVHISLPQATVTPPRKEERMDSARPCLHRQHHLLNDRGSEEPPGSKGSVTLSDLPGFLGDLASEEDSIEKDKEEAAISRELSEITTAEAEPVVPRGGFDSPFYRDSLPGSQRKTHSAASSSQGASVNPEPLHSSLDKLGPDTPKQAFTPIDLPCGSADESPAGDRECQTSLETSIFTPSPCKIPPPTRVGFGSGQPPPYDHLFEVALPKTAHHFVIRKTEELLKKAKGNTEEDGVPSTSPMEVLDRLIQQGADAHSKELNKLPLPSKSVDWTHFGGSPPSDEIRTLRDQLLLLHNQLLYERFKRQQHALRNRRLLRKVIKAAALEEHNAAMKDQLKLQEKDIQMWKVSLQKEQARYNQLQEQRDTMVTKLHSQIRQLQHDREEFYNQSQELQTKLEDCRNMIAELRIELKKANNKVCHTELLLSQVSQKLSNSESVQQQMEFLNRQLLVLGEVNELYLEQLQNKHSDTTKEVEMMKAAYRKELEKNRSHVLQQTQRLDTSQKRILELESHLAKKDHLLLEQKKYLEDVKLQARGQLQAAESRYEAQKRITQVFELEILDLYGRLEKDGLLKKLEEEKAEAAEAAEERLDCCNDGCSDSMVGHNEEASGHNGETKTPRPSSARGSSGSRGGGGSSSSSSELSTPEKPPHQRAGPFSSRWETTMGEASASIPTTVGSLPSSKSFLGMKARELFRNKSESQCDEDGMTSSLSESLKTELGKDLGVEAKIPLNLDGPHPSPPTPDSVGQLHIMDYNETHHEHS
# Key:
# [1] = target: PIWIL2 (piwi-like RNA-mediated gene silencing 2) (human) (UniProt Q8TC59); experiment: co-IP; lysates of KYSE150 and KYSE180 cells; immunoprecipitation with the indicated antibodies and protein A + G agarose beads, western blot
# [2] = target: PIWIL2 overexpressed from the PIWIL2 expression vector (human) (UniProt Q8TC59); experiment: co-IP; KYSE150 cells transfected with different amounts of PIWIL2 vector (1-3 µg); immunoprecipitation with anti-PIWIL2 or anti-TSC1, IKKβ detected by blot
# [3] = target: T1, TSC1 (tuberous sclerosis 1) (human (endogenous in KYSE150)); experiment: as above
# [4] = target: PIWIL2, cell-free expressed (TnT System) (human) (UniProt Q8TC59); experiment: co-IP; cell-free expression of PIWIL2, IKKβ and TSC1 with the TnT System, followed by immunoprecipitation
# [5] = target: T2, TSC1, cell-free expressed (TnT System); experiment: as above
Binder,binding [1],binding [2],binding [3],binding [4],binding [5]
"IKKβ (protein, UniProt O14920 1-756) MSWSPSLTTQTCGAWEMKERLGTGGFGNVIRWHNQETGEQIAIKQCRQELSPRNRERWCLEIQIMRRLTHPNVVAARDVPEGMQNLAPNDLPLLAMEYCQGGDLRKYLNQFENCCGLREGAILTLLSDIASALRYLHENRIIHRDLKPENIVLQQGEQRLIHKIIDLGYAKELDQGSLCTSFVGTLQYLAPELLEQQKYTVTVDYWSFGTLAFECITGFRPFLPNWQPVQWHSKVRQKSEVDIVVSEDLNGTVKFSSSLPYPNNLNSVLAERLEKWLQLMLMWHPRQRGTDPTYGPNGCFKALDDILNLKLVHILNMVTGTIHTYPVTEDESLQSLKARIQQDTGIPEEDQELLQEAGLALIPDKPATQCISDGKLNEGHTLDMDLVFLFDNSKITYETQISPRPQPESVSCILQEPKRNLAFFQLRKVWGQVWHSIQTLKEDCNRLQQGQRAAMMNLLRNNSCLSKMKNSMASMSQQLKAKLDFFKTSIQIDLEKYSEQTEFGITSDKLLLAWREMEQAVELCGRENEVKLLVERMMALQTDIVDLQRSPMGRKQGGTLDDLEEQARELYRRLREKPRDQRTEGDSQEMVRLLLQAIQSFEKKVRVIYTQLSKTVVCKQKALELLPKVEEVVSLMNEDEKTVVRLQEKRQKELWNLLKIACSKVRGPVSGSPDSMNASRLSQPGQLMSQPSTASNSLPEPAKKSEELVAEAHNLCTLLENAIQDTVREQDQSFTALDWSWLQTEEEEHSCLEQAS",binds,binds,binds,,
"IKKβ, cell-free expressed (TnT System) (protein, UniProt O14920 1-756) MSWSPSLTTQTCGAWEMKERLGTGGFGNVIRWHNQETGEQIAIKQCRQELSPRNRERWCLEIQIMRRLTHPNVVAARDVPEGMQNLAPNDLPLLAMEYCQGGDLRKYLNQFENCCGLREGAILTLLSDIASALRYLHENRIIHRDLKPENIVLQQGEQRLIHKIIDLGYAKELDQGSLCTSFVGTLQYLAPELLEQQKYTVTVDYWSFGTLAFECITGFRPFLPNWQPVQWHSKVRQKSEVDIVVSEDLNGTVKFSSSLPYPNNLNSVLAERLEKWLQLMLMWHPRQRGTDPTYGPNGCFKALDDILNLKLVHILNMVTGTIHTYPVTEDESLQSLKARIQQDTGIPEEDQELLQEAGLALIPDKPATQCISDGKLNEGHTLDMDLVFLFDNSKITYETQISPRPQPESVSCILQEPKRNLAFFQLRKVWGQVWHSIQTLKEDCNRLQQGQRAAMMNLLRNNSCLSKMKNSMASMSQQLKAKLDFFKTSIQIDLEKYSEQTEFGITSDKLLLAWREMEQAVELCGRENEVKLLVERMMALQTDIVDLQRSPMGRKQGGTLDDLEEQARELYRRLREKPRDQRTEGDSQEMVRLLLQAIQSFEKKVRVIYTQLSKTVVCKQKALELLPKVEEVVSLMNEDEKTVVRLQEKRQKELWNLLKIACSKVRGPVSGSPDSMNASRLSQPGQLMSQPSTASNSLPEPAKKSEELVAEAHNLCTLLENAIQDTVREQDQSFTALDWSWLQTEEEEHSCLEQAS",,,,binds,binds
